Laboratory results as given in PubChem BioAssay AID2685 (National Center for Advancing Translational Sciences (NCATS), 2010).
This is one part of the list. The main result of the screen is listed elsewhere. These columns were measured beside it and carry no call. The list favours compounds with an active or inconclusive main result. Words in brackets tell the shape of the fitted curve; partial curves, single points and poor fits give uncertain potencies.

Test: qHTS Assay for Lipid Storage Modulators in Drosophila S3 Cells;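 as to cell number change: cells counted by Cell Tracker Red CMTPX staining in the red channel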
Conditions: BODIPY lipid droplet fluorescence, 18-24 h; for cell number change: measured here: cell count max response, cells fed with added oleic acid
Method in brief: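 Laser-scanning cytometry quantifies lipid droplet accumulation (500–530 nm total intensity; droplet/cell object ratio) in oleic acid-fed (400 uM added) Drosophila S3 cells treated with a concentration series. 20 uM Triacsin C defined 100% inhibition.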

[1] = measured here: cell number channel AC50, cells fed with added oleic acid
[2] = measured here: lipid fluorescence (Fed channel) AC50, cells fed with added oleic acid

SMILES	AC50 [1]	cell number change [%]	AC50 [2]
CCN(CC)S(=O)(=O)c1ccc(OC(C)C)c(N)c1	0.731 µM [falling, single point]		
CC(C)(C)NC(=O)CCSc1nnc(-c2ccco2)o1		23.5	29.1 µM [rising, single point]
C=C(C)CNC(=S)N/N=C(\C)c1ccc(-n2ccnc2)cc1	0.116 µM [rising, full curve, poor fit]	61.8	0.291 µM [rising, full curve]
OCCSc1nc(-c2ccccc2)nc2c1CCC2		25.4	20.6 µM [rising, single point]
Cc1occc1-c1nnc(SCC(=O)c2ccc(Cl)cc2)n1C		-18.2	29.1 µM [falling, single point]
Cc1ccc(CNC(=O)C2CCCN(S(=O)(=O)c3c(C)n[nH]c3C)C2)cc1 (stereo not drawn)	16.4 µM [rising, partial curve]	76.5	
CN1CCN(c2cc(N3CCN(C(=O)c4ccco4)CC3)c3c4c(onc24)-c2ccccc2C3=O)CC1	4.11 µM [falling, single point]	39.2	
Clc1ccc(COc2cccc(CNCc3ccncc3)c2)cc1	4.11 µM [falling, single point]	46.8	
CCOC(=O)c1[nH]c(C)c(C(=O)Nc2ccc(F)cc2)c1C	4.11 µM [rising, full curve]	77.3	23.1 µM [rising, single point]
O=C(O)CCNc1cc2ccccc2cc1C(=O)O		6.99	0.116 µM [rising, full curve, poor fit]
CC(=O)Nc1ccc(C2=NN(C)C(=NCc3ccccc3)SC2)cc1		20.6	
Cc1ccc(C(=O)N/C(=C\c2ccc(Cl)cc2)C(=O)NCCN2CCOCC2)cc1		5.65	0.58 µM [falling, single point]
CN1CCc2c(sc(NC(=O)c3ccc(S(=O)(=O)N4CCCC4)cc3)c2C(N)=O)C1		-26.4	6.51 µM [rising, single point]
Cc1ccc(NC(=O)CSc2nncc3ccccc23)cc1		-6.94	29.1 µM [falling, single point]
CCCNC(=O)Cc1c(O)c2ccccc2[nH]c1=O	0.164 µM [falling, full curve]	-7.47	
O=C(C/C=N/OCc1ccc(Cl)cc1Cl)c1ccccc1		1.87	
N#Cc1ccc(/C=N/NC(=O)CCc2ccc(S(=O)(=O)N3CCOCC3)cc2)cc1		17.2	9.2 µM [rising, partial curve, poor fit]
COc1ccc(CCN2C(=O)CC(Nc3ccc(N4CCOCC4)cc3)C2=O)cc1OC (stereo not drawn)	5.8 µM [falling, full curve, poor fit]	-36.9	6.51 µM [rising, partial curve]
CCCCN1C(=O)/C(=C/C=C2\N(C)c3ccccc3C2(C)C)SC1=S	2.31 µM [falling, full curve]	-71.2	1.46 µM [falling, partial curve]
COc1ccc(C(=O)NCCNc2ccc([N+](=O)[O-])cc2)cc1OC		-16.1	23.1 µM [falling, single point]
[O-]/C(=C(\C(=S)Nc1ccc(SC(F)F)cc1)[n+]1cccc(CO)c1)c1ccc(Cl)s1		-5.17	
COC(=O)c1nc(N)sc1C(C)C		11.7	0.58 µM [rising, full curve]

SMILES	AC50 [1]	cell number change [%]	AC50 [2]
CC(C)CNC(=O)NC1C(NC(=O)NCC(C)C)N(C)C(=O)N1C (stereo not drawn)		-0.897	3.66 µM [falling, single point]
Cc1cc(C(=O)OCC(=O)c2ccc(Br)s2)no1		-5.02	3.66 µM [rising, single point]
COc1ccccc1C(=O)Nc1cc(C)c(OCC(=O)N2CCOCC2)c(C)c1	16.4 µM [falling, single point]	-31.5	
COc1cc(-c2nc3cnccn3c2Nc2ccc(C(C)C)cc2)ccc1O	23.1 µM [falling, single point]	-89.1	
C=CCSc1ncnc2sc(C)c(C)c12		-7.53	5.8 µM [rising, single point]
CSc1ccc(NC(=O)NCCN2CCc3ccccc3C2)cc1		40.9	
COc1ccc(OCc2nnc3n2N=C(c2ccc(OC)cc2)CS3)cc1	2.06 µM [rising, partial curve, poor fit]	-10.6	2.31 µM [rising, partial curve]
O=C(CN1CCCCC1)NCC(=O)Nc1ccc(F)c(F)c1F		9.71	2.31 µM [falling, partial curve]
Cc1cc(C)nc(-n2nc(C)c(Br)c2Nc2ccc(Br)cc2)n1	0.092 µM [rising, full curve]	6.59	0.13 µM [rising, full curve]
COc1ccc(C(=O)Nc2c3c(nn2-c2cccc(Cl)c2)CS(=O)C3)cc1 (stereo not drawn)	2.06 µM [rising, partial curve]		4.61 µM [rising, partial curve]
CC(=O)Nc1ccccc1C(=O)C(=O)Nc1ccc(F)c(Cl)c1		-3.3	25.9 µM [rising, single point]
O=C(CN1CCN(c2ncccn2)CC1)Nc1ccccc1C(F)(F)F		-24.1	29.1 µM [falling, single point]
S=C(Nc1ccc(Cl)cc1)NC1CC2CCCC(C1)N2C1CCCC1 (stereo not drawn)		-3.45	
Nc1nc(CN2CCN(c3ccccc3F)CC2)nc(N2CCCc3ccccc32)n1		-4.46	0.206 µM [falling, partial curve, poor fit]
COc1ccc([C@H]2[C@H](C(=O)OC(C)(C)C)N3N=Cc4ccccc4C3C23C(=O)c2ccccc2C3=O)c(OC)c1 (stereo partly drawn)		-20.5	29.1 µM [falling, single point]
CCOc1cccc(C=NCCc2ccc(OC)c(OC)c2)c1O		18.1	
CNC(=O)c1ccc(-c2ccc(F)cc2)s1		-15.1	29.1 µM [rising, single point]
CC(C)CCn1c(N2CCN(Cc3ccccc3)CC2)nc2c1c(=O)[nH]c(=O)n2C		20.9	18.4 µM [rising, partial curve]
COc1ccc(NC(=O)c2ccco2)cc1NC(=O)c1cccs1		-9.53	
CCC(C(=O)NC1CCCC1)N(C(=O)c1snc(C(N)=O)c1N)c1ccc(OC)c(OC)c1 (stereo not drawn)		5.56	5.17 µM [falling, full curve]
Cc1ccc(Oc2ccc(Cl)cc2NC(=O)c2ccc(F)cc2F)cc1		14.9	29.1 µM [rising, single point]
CCCNS(=O)(=O)c1ccc(OC)c(Cl)c1Cl		27.3	

SMILES	AC50 [1]	cell number change [%]	AC50 [2]
COc1ccc(NC(=S)N2CCc3ccccc3C2)cc1OC		37.2	
CCOc1ncccc1C(=O)Nc1nc(SC)ns1	4.61 µM [rising, full curve]	96.2	0.291 µM [rising, single point]
O=[N+]([O-])c1cccc(C2NCC(c3ccccc3Cl)c3c2[nH]c2ccccc32)c1 (stereo not drawn)		61.7	
CCCCCCCC[n+]1cccc2c3ccccc3ccc21	5.17 µM [falling, full curve]	-46.9	3.66 µM [falling, full curve]
CC(=O)c1c(C)[nH]c(C(=O)NCc2ccc(F)cc2)c1C		27.7	
O=c1oc(C2(O)CCCCC2)cc2ccc(/C=C/c3ccc(F)cc3)cc12	0.13 µM [falling, single point]	0.388	
O=C(NCC(c1cccs1)N1CCOCC1)c1cc(-c2ccc(F)cc2)nc2ccccc12 (stereo not drawn)	1.3 µM [rising, full curve]	44.3	
COc1ccccc1CNC(=O)C1Cc2ccccc2C(=O)O1 (stereo not drawn)		161	
Cc1ccc(-n2ncc3c2ncn2c(-c4ccncc4)nnc32)cc1		10.1	
CCOc1ccc(NS(=O)(=O)c2cc(Cl)ccc2OC)cc1	23.1 µM [falling, partial curve]	-89.2	25.9 µM [falling, partial curve]
N#CNC(N)=Nc1cccc(Cl)c1		20.3	
Cn1c(=O)oc2cc(S(=O)(=O)NC(Cc3ccccc3)C(=O)N3CCCCC3)ccc21 (stereo not drawn)		2.53	14.6 µM [falling, partial curve]
O=C(NC(=S)Nc1ncccn1)c1ccc(F)cc1		-15.8	
O=C(N/N=C/c1cn(-c2cccs2)nc1-c1ccccc1)c1ccccc1Cl		24.5	29.1 µM [rising, single point]
Cc1cccc(C(=O)Nc2sc3c(c2C(=O)O)CCCC3)c1	29.1 µM [falling, single point]	-39.4	
OC(COc1ccc(F)cc1Cl)CN1CCc2ccccc2C1 (stereo not drawn)		-15.2	6.51 µM [falling, single point]
CC1CC(C)CN(C(=O)c2cn(C)c3ccc(S(=O)(=O)N(C)C)cc3c2=O)C1 (stereo not drawn)	0.13 µM [rising, full curve]	48.4	0.259 µM [rising, full curve]
Clc1ccccc1CN(Cc1ccccc1)c1ncnc2nc[nH]c12			1.3 µM [falling, full curve]
CCc1nn2c(=O)cc(COc3ccc(NC(=O)c4ccco4)cc3)nc2s1	29.1 µM [falling, single point]	-35.9	
COc1ccc(NC(C)=O)cc1S(=O)(=O)NCCc1ccccn1		-4.65	6.51 µM [rising, partial curve, poor fit]
COc1ccc(/C=N/Nc2nnc(C)n2N)cc1OC		12.1	0.92 µM [rising, full curve, poor fit]

In the list so far, two contain bromine:
SMILES	AC50 [1]	cell number change [%]	AC50 [2]
Cc1cc(C(=O)OCC(=O)c2ccc(Br)s2)no1		-5.02	3.66 µM [rising, single point]
Cc1cc(C)nc(-n2nc(C)c(Br)c2Nc2ccc(Br)cc2)n1	0.092 µM [rising, full curve]	6.59	0.13 µM [rising, full curve]
